Laboratory results taken from PubChem BioAssay AID1347075 (National Center for Advancing Translational Sciences (NCATS), 2019).
Hit rate of the full screen: of about 400,000 compounds, about 5,500 (1.4%) were called active. The inconclusive results got no clear call from the source; some entries with a clear call stand among them for comparison. The call rests on the fitted dose curve; in most records, active means well fitted cell-killing curve with a large enough effect; inconclusive means small, poorly fitted or top-dose-only effect, or effect the other way; inactive means flat fitted curve, though single readings scatter. Potencies of inconclusive entries are doubtful fits and often do not repeat.

assay: qHTS assay for MDR1-selective chemotherapeutics: Primary screen using the parental adenocarcinoma cell KB-3-1; conditions: KB-3-1 viability, CellTiter-Glo ATP luminescence, 72 h; series mostly up to 46.1 µM; further: nearly all actives have a fitted effect of over 60% in size
Procedure, shortened: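 Luminescent ATP read-out (CellTiter-Glo) measures survival of drug-naive KB-3-1 cells after 72 h compound exposure at 37 °C. Titration series was screened from lowest to highest concentration, with DMSO vehicle plates as background controls.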
Potency means the concentration at half of the fitted maximal effect.

Row | SMILES | Potency
1 | C=CCN1C(=O)C2(C(C(=O)OC)=C(N)Oc3c2c(=O)oc2ccccc32)c2ccccc21 (configuration not stated) | inconclusive: 23.1 µM [rising, single point]
2 | CC(=O)Nc1ccc(S(=O)(=O)N2Cc3ccccc3-n3nncc3C2)cc1 | inconclusive: 14.6 µM [cytotoxic, partial curve, poor fit]
3 | CN1CCC(N(C)c2nc(-c3ccc([N+](=O)[O-])cc3)nc3ccccc23)CC1 | inconclusive: 29.1 µM [cytotoxic, single point]
4 | O=C(c1ccco1)c1cn(Cc2ccccc2Cl)c2ccccc12 | inconclusive: 35.5 µM [cytotoxic, single point]
5 | C[C@H](NC(=O)CCC(=O)N1C[C@H]2C[C@H](C1)c1cccc(=O)n1C2)c1ccccc1 | inactive
6 | O=c1[nH]c(CN2CC=C(c3ccccc3)CC2)nc2scc(-c3ccccc3)c12 | inconclusive: 29.1 µM [cytotoxic, single point]
7 | COc1ccccc1OCCCn1cc(C=O)c2ccccc21 | inactive
8 | C=CCn1c(O)c(C(CC)=NCc2cc(OC)cc(OC)c2)c(=O)[nH]c1=O | inconclusive: 18.4 µM [cytotoxic, partial curve, poor fit]
9 | CCCC1(CCC)C(=O)NC(=NCc2ccccc2)NC1=O | inconclusive: 23.1 µM [cytotoxic, single point]
10 | Cc1noc(C)c1CSCC(=O)Nc1ccc(C#N)c(Cl)c1 | inactive
11 | CN1c2ccc([N+](=O)[O-])cc2CC2(C(=O)NC(=O)N(c3ccc(Br)cc3)C2=O)C1c1ccccc1 (configuration not stated) | inactive
12 | CCCCCc1cc(O)c2c3c(c(=O)oc2c1)CN(C)CC3 | inactive
13 | COC(=O)C1=C(c2ccc(OCc3ccccc3)cc2)C[C@@H]2CC[C@H]1N2C(=O)NCc1ccc(Cl)cc1 | inconclusive: 20.6 µM [cytotoxic, single point]
14 | O=C1NC2C(O)C(O)C(O)C(O)C2c2cc3c(c(O)c21)OCO3 (configuration not stated) | inconclusive: 2.31 µM [cytotoxic, partial curve, poor fit]
15 | CCCCCOc1ccc(C)cc1CN(CCCl)CCCl | inconclusive: 20.6 µM [cytotoxic, single point]
16 | CN1OCC2Cn3c(nc4ccccc43)C21 (configuration not stated) | inconclusive: 32.6 µM [rising, single point]
17 | CC1(C)C(=O)C=C[C@]2(C)[C@H]3CC[C@@]4(C)[C@H](c5ccoc5)OC(=O)[C@H]5O[C@]54[C@]3(C)[C@H](O)C[C@@H]12 | inconclusive: 29.1 µM [rising, single point]
18 | CC(CC(C)(C)N1CC1)=NO | inactive
19 | Cc1ccc(-n2c(C)nc3cc(Cl)ccc3c2=O)nc1 | inactive
20 | O=C1NC(=O)N(c2ccccc2)C(=O)/C1=C/c1ccc(Sc2ccccc2)o1 | inactive
21 | CCCCCn1c(=O)c(C(=O)Nc2cnccn2)c(O)c2ccccc21 | inconclusive: 18.4 µM [cytotoxic, partial curve, poor fit]

2 consecutive compounds already listed:
Row | SMILES | Potency
12 | CCCCCc1cc(O)c2c3c(c(=O)oc2c1)CN(C)CC3 | inactive
13 | COC(=O)C1=C(c2ccc(OCc3ccccc3)cc2)C[C@@H]2CC[C@H]1N2C(=O)NCc1ccc(Cl)cc1 | inconclusive: 20.6 µM [cytotoxic, single point]

(further entries)

Row | SMILES | Potency
22 | CCCCn1c(O)c(C(CC)=Nc2ccc(OCC)cc2)c(=O)[nH]c1=O | inconclusive: 29.1 µM [cytotoxic, single point]
23 | CCCCC(=O)N/N=C/c1c(O)n(CC)c(=S)n(CC)c1=O | inconclusive: 29.1 µM [cytotoxic, single point]
24 | CCn1nc(/C=C/c2ccccc2)nc2c(=O)n(C)c(=O)nc1-2 | active: 4.11 µM
25 | CCOc1cccc(=NC2CCCCC2)c2c(C)[nH]c(C)c12 | inconclusive: 18.4 µM [cytotoxic, single point]
26 | COC(=O)c1nc(-c2ccc3c(n2)C(=O)C(N)=C(OC)C3=O)c(N)c(-c2ccc(OC)c(OC)c2O)c1C | inconclusive: 10.3 µM [cytotoxic, partial curve, poor fit]
27 | COC(=O)C1=C(c2ccc(C(C)=O)cc2)C[C@@H]2CC[C@H]1N2C(=O)NCc1ccco1 | inactive
28 | Cc1nn(Cc2ccccc2Cl)c(Cl)c1C(=O)O | inactive
29 | C=CCC1(Cc2ccsc2)C(=O)NC(=O)NC1=O | inconclusive: 23.1 µM [rising, partial curve, poor fit]
30 | COC(=O)C1=C(c2ccc(OCc3ccccc3)cc2)C[C@@H]2CC[C@H]1N2C(=O)NCc1cccc(OC)c1 | inconclusive: 29.1 µM [cytotoxic, single point]
31 | Oc1ccccc1-[n+]1c(-c2ccccc2)cc(-c2ccccc2)cc1-c1ccccc1 | inconclusive: 16.4 µM [cytotoxic, single point]
32 | CCCCn1c(=O)c(C(=O)Nc2ccsc2C(=O)OC)c(O)c2ccccc21 | inconclusive: 4.61 µM [cytotoxic, full curve, poor fit]
33 | COc1ccccc1-n1c(/C=C/c2ccccn2)nc2ccccc2c1=O | inconclusive: 29.1 µM [cytotoxic, single point]
34 | c1ccc(CCc2ccc3n2Cc2cnnn2-c2ccccc2-3)cc1 | inconclusive: 32.6 µM [cytotoxic, single point]
35 | CCOC(=O)c1c(-n2c(C)cc(C=C3C(=O)NC(=S)NC3=O)c2C)sc2c1CCCC2 | inconclusive: 23.1 µM [cytotoxic, single point]
36 | Cc1ccccc1-c1ccc2c(c1)C1c3c(-c4ccccc4)nnn3-c3ccccc3C(=O)N1CC2 (configuration not stated) | inconclusive: 29.1 µM [cytotoxic, single point]
37 | COc1cccc(N2C(=O)/C(=C/c3ccc(C)o3)C(=O)NC2=S)c1 | inconclusive: 4.11 µM [cytotoxic, full curve]
38 | CCn1c(C)c(C(=O)NCCc2ccccc2)c2cc(OC)ccc21 | inactive
39 | CC1CN(c2ccc([N+](=O)[O-])c3cccnc23)CC(C)N1 (configuration not stated) | inactive
40 | COc1ccc2c(c1)c(CCN)c(C)n2Cc1ccccc1 | inconclusive: 18.4 µM [cytotoxic, single point]
41 | O=P(Nc1ccccc1)(Nc1ccccc1)Oc1ccc(Cl)cc1 | inactive
42 | CC(=O)OC1C(O)C2=C3C4(C)C1C(C)(C)C(=O)CC4C3(O)C(OC(C)=O)C1(CC1C)C2=O (configuration not stated) | inconclusive: 16.4 µM [cytotoxic, single point]
